Experimental findings from publication PMC4932512 are described below.

Amino acid sequences for entries named in this document (tags omitted). A change or cut given only in a name is not applied to a line headed by its entry.
UniProt Q86Y07: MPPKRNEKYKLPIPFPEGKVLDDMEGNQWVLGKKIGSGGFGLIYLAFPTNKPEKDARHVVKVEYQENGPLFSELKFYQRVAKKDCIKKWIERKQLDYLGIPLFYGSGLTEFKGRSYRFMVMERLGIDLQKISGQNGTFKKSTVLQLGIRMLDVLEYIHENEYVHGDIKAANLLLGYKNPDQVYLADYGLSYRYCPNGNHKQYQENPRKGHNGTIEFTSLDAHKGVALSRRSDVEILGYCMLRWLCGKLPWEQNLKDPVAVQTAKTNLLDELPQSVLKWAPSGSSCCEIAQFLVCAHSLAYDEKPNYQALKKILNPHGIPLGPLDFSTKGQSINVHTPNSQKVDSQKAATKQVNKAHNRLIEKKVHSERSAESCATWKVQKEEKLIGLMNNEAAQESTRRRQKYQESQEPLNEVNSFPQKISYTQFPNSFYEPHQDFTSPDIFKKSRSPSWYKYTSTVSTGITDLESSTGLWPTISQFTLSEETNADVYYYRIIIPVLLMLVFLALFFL
UniProt P49841: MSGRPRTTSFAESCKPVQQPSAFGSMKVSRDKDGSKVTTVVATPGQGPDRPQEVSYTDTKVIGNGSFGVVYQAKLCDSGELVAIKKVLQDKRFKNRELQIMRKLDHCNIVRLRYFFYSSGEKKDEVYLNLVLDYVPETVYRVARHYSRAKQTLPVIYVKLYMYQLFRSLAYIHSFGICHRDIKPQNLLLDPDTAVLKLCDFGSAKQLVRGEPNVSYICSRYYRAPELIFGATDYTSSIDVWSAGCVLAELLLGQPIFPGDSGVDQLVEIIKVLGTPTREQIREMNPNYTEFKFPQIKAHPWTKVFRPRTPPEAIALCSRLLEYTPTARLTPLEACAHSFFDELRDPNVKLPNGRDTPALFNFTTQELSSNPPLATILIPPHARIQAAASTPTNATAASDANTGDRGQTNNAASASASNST

No constants are given. Whether binding was seen depends on the method and setting. In cells and extracts the contact can be indirect. A result given as binding can be weak or reduced; the word gives no strength.

For this assay, the target named is Recombinant Flag-VRK2 purified from E. coli (human) (UniProt Q86Y07). Briefly: co-IP; recombinant Flag-VRK2 and GST-GSK3β purified from E. coli; immunoprecipitated with anti-Flag antibody or control IgG; Western blot with anti-GST or anti-Flag; both purified. (A western blot detects proteins with antibodies after separation by electrophoresis.)

In the case of “Recombinant GST-GSK3β purified from E. coli (from UniProt P49841 1-420) (enzyme)”, the binding entry is given as “binds”.
